PubChem BioAssay AID686943 | Drosophila RNAi Screening Center | 2013
Assay: 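Fly genes whose loss alters ERK activation after insulin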 (primary screen). Cell system: Drosophila S2R+ haemocyte-like cells expressing YFP-tagged ERK (Rolled). Knock-down reagent: long dsRNA against Drosophila genes. Conditions: insulin stimulation versus unstimulated cells; dose and duration not given. Measurement: 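Per-plate z-scores of phospho-ERK immunostaining normalised to YFP-tagged ERK, measured with and without insulin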. Reading the numbers: replicate 1, z-score of dpERK with insulin and replicate 2, z-score of dpERK with insulin: higher = more active ERK per ERK-YFP after insulin; replicate 1, z-score of dpERK under basal conditions: higher = more basal active ERK per ERK-YFP; replicate 1, z-score of ERK-YFP with insulin: higher = more YFP-tagged ERK signal.
The deposit covers about 23,000 reagents; this is an unselected part of those that have a named target and a result. 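Extra replicates exist only for a retested subset of genes; insulin dose and duration not given; both raised and lowered dpERK matter.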 The numbers tell different reagents against one gene apart. A plus sign joins genes that one reagent is predicted to hit. Not given: the amount of reagent, the time to read-out.

Target gene	reagent no.	replicate 1, z-score of dpERK with insulin	replicate 2, z-score of dpERK with insulin	replicate 1, z-score of dpERK under basal conditions	replicate 1, z-score of ERK-YFP with insulin
cd	1	-0.61	0	-0.29	-0.2
eIF4EHP	1	0.65	0.3	0.04	0.39
eIF4EHP	2	0.83	-0.71	-0.11	-0.1
CG16700	1	0.12	0.21	-0.18	-0.26
galla-2	1	0.53	0.88	0.59	0.31
galla-2	2	1.38	0.73	-0.02	-1.12
FoxK	1	0.46	-0.54	-0.48	0.18
Wbp2	1	1.02	1	-0.97	-1.12
CG9993	1	0.59	0.05	0.14	-0.59
Ndae1	1	0.38	0.45	1.34	0.94
Ndae1	2	1.38	-0.15	-0.5	0.14
CG11898	1	1.39	0.49	0.78	-0.01
COX7A	1	-1.04	-1.45	-0.82	2.24
CG14220	1	-0.75	1.97	-0.95	1.97
CG8833	1	0.56	0.86	0.2	-0.21
Pdha	1	0.55	0.82	0.44	0.42
Kul	1	0.96	-0.05	-0.01	-0.17
His3.3B	1	-0.26	0.61	-0.89	0.84
His3.3B	2	-1.54	-2.69	-0.74	-2.04
CR40354	1	-0.79	0.04	-1.3	0.13

Look-ups from above:
For “replicate 1, z-score of dpERK with insulin”, Pdha has 0.55
Result of CG9993 in “replicate 1, z-score of dpERK under basal conditions”: 0.14
Value of CR40354 under “replicate 2, z-score of dpERK with insulin”: 0.04
Ndae1 #1, replicate 2, z-score of dpERK with insulin = 0.45
For “replicate 2, z-score of dpERK with insulin”, CG11898 reads 0.49
Value for His3.3B #2 in “replicate 1, z-score of dpERK with insulin”: -1.54

The listing continues:
Target gene	reagent no.	replicate 1, z-score of dpERK with insulin	replicate 2, z-score of dpERK with insulin	replicate 1, z-score of dpERK under basal conditions	replicate 1, z-score of ERK-YFP with insulin
CR31822	1	0.03	0.38	0.66	0.32
tup	1	-0.22	0.53	-0.26	0.52
snoRNA:U31:54Ec + snoRNA:snR38:54Eb + snoRNA:U27:54Eb + 8 more	1	0.07	-0.06	-0.22	0.14
MED1	1	0.97	0.66	-1.42	0.22
Or59c	1	-0.05	0.32	-0.76	-0.17
CG43341	1	0.26	0.14	-0.38	0.02
CG31244	1	-0.55	-0.69	-0.56	0.04
dany	1	-0.53	-0.08	-0.39	0.53
Cyp9b2	1	-0.04	0.25	-0.34	0.44
OtopLa	1	1.36	1.22	1.49	0
OtopLa	2	0.32	0.46	1.49	0.11
CG14621	1	0.33	0.01	-0.13	-0.09
az2	1	-0.56	0.2	1.24	-0.18
caz	1	0.83	2.65	-0.45	-0.06
caz	2	0.79	-1.58	-0.65	-1.04
CG4660	1	-0.17	-0.13	1.03	0.04
CG5810	1	0.39	-0.11	0.55	-0.53
CG5810	2	0.26	0.76	-0.68	0.05
dbr	1	0.71	0.84	1.07	-1.09
Cnep1r1	1	-0.51	-0.6	1.19	0.29
CG10681	1	0.72	0.04	0.04	-0.15
CG10681	2	0.77	-1.33	0.37	-1.13
ND-51L1	1	0.26	0.04	-0.66	0.24
LeuRS-m	1	0.54	1.09	0.58	0.23
CG9517 (retired record)	1	0.48	0.19	0.32	0.07
CG9517 (retired record)	2	1.12	0.39	-0.33	-0.08
PIG-B	1	-0.12	2.08	-0.55	1.49
PIG-B	2	0.45	0.34	0.41	-0.05
ARY (retired record)	1	-1	0.01	-0.6	0.24
Adk3	1	-0.08	0.3	0.68	-0.11
CG11529	1	-0.57	0.4	-0.15	-0.05
Boh2	1	0.52	-0.13	0.29	-0.21
CG9855	1	-0.14	1.23	0.54	-0.26
CG13284	1	-0.01	-0.16	-0.31	-0.26
inaF-C	1	0.71	1.47	0.8	-0.23
CG32544	1	0.08	-0.18	-0.84	-0.14
mnb	1	-3.16	-2.21	-2.44	-0.79
mnb	2	-0.44	-0.01	2.41	0.74
